Protein sequences, listed by entry. Tags and fused reporters are not part of them. Lines headed by an entry give the natural chain unless they say otherwise; changes in a name come on top.
UniProt P49597: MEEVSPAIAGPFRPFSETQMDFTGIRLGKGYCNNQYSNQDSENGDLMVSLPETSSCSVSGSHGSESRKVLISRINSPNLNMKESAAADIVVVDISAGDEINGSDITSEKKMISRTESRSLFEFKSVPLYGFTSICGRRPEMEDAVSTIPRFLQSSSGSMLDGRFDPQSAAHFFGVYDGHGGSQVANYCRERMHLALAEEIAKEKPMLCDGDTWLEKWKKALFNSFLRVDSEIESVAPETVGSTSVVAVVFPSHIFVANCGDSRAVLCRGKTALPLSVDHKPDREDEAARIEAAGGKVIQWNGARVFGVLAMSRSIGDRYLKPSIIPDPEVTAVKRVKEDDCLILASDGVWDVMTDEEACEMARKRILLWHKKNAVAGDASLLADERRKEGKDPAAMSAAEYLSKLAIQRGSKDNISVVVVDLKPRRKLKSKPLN
UniProt A0A2N7VMU2: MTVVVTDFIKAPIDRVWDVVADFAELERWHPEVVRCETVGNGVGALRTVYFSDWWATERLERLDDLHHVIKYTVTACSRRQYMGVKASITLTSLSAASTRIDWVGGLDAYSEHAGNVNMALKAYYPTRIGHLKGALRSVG

In PMC12717121, “ABA-independent PP2C-binding in PYLs traces to bacterial origins and persists in land plants” (Nature Communications, 2025):

Tests used:
[1] = molecular target: T1, HAB2 (Arabidopsis clade A PP2C), two-hybrid fusion (Arabidopsis) (UniProt Q9LNP9); assay: two-hybrid; Matchmaker GAL4 Two-Hybrid System, yeast strain Y2HGold co-transformed with paired constructs; growth on selective SD/-Leu-Trp-His (or -LWHA) media without or with 10 µM ABA
T1 sequence: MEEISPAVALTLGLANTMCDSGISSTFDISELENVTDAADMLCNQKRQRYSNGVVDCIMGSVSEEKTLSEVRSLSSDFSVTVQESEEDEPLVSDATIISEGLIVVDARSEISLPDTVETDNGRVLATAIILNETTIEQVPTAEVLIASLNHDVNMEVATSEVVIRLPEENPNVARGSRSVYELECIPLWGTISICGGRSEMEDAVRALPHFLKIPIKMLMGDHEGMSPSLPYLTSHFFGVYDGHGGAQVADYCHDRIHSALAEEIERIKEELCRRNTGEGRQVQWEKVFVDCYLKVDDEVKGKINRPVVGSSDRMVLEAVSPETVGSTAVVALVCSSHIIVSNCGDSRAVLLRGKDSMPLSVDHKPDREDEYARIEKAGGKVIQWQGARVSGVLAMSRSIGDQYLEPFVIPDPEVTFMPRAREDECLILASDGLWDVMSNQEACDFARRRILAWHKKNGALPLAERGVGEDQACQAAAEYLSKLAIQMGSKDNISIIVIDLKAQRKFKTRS

[2] = molecular target: T2, PP2CA (Arabidopsis clade A PP2C), two-hybrid fusion (Arabidopsis) (UniProt P49598); assay: as above
T2 sequence: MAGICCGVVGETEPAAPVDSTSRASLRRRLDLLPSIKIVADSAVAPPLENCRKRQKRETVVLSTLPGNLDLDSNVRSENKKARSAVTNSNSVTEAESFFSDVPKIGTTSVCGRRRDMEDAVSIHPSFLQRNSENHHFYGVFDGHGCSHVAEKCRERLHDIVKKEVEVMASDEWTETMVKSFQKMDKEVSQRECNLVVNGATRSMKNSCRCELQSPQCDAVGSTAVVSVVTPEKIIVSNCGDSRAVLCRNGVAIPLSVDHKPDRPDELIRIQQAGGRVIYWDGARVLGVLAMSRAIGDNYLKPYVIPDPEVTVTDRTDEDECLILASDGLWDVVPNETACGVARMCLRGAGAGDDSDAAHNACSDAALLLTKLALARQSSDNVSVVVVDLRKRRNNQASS

[3] = molecular target: T3, cLUC-HAI1 (Arabidopsis) (UniProt Q9FIF5); assay: split reporter; firefly luciferase complementation imaging (LCI); PYL-nLUC and cLUC-PP2C transiently co-expressed in Nicotiana benthamiana leaves by Agrobacterium infiltration; D-luciferin, CCD imaging
T3 sequence: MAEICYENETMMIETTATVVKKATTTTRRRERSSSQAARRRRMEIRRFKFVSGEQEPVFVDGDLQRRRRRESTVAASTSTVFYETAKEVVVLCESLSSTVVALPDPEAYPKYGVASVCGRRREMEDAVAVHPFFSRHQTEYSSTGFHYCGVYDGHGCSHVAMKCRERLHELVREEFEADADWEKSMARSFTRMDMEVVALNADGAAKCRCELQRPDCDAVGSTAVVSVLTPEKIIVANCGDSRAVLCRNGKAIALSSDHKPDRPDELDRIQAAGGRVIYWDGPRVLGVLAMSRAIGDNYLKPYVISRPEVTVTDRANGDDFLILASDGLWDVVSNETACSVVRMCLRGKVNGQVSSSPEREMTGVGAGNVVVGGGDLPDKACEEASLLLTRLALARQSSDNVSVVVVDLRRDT

[4] = molecular target: T4, cLUC-PP2CA (Arabidopsis) (UniProt P49598); assay: as above
T4 sequence: T2 sequence

[5] = molecular target: T5, cLUC-AtHAB2 (Arabidopsis) (UniProt Q9LNP9); assay: as above
T5 sequence: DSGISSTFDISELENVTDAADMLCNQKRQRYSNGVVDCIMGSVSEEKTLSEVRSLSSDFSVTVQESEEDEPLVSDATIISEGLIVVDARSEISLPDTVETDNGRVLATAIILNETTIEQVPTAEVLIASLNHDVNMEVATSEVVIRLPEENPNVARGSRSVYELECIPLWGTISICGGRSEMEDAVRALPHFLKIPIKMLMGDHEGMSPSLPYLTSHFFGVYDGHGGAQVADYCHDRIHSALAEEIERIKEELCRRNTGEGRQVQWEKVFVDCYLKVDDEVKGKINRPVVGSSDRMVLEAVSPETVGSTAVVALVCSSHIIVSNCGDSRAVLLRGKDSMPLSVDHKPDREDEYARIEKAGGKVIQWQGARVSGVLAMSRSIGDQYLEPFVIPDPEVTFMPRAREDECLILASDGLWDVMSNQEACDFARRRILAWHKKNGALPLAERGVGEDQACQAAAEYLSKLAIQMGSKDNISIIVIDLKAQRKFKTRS

[6] = molecular target: cLUC-AtABI1 (Arabidopsis) (UniProt P49597); assay: as above

| Substance | binding [1] | binding [2] | further results |
| --- | --- | --- | --- |
| Frankia PYL | no binding | no binding |  |
| Sphingomonas PYL | no binding | no binding |  |
| MeenPYL3-nLUC (Mesotaenium endlicherianum) |  |  | binding [3]: binds; binding [4]: binds |
| PrPYL-nLUC (from UniProt A0A2N7VMU2) |  |  | binding [5]: binds weakly; binding [6]: binds weakly |

These are yes or no findings as the source states them, for the method shown. For some assays here: In cells and extracts the contact can be indirect. For some assays here: Binding calls can cover weak binding; strength is not graded here. For some assays here: Tags and fused reporters may be left off the sequences shown.
